Measurements from patent EP1038864A1, “NOVEL METALLOPROTEINASE INHIBITORS” (FUJI YAKUHIN KOGYO KABUSHIKI KAISHA, priority 1997, dated 1999).
Counter-ions that a name gives are not always drawn. Some results were stated once for a whole list of compounds, not compound by compound. At least one compound was matched to its structure with a doubt left.

format: in vivo; settings: intravenously into tail, 10 mg/kg, observed during 8 days

SMILES | death and body weight reduction
CCOP(=O)(O)C(Nc1ccc(C[C@H](NC(=O)[C@H](CC(C)C)C(C)C(=O)NO)C(=O)NC)cc1)P(=O)(OCC)OCC (mixture of isomers) [Compound No. 34, N^a-[4-(Hydroxyamino)-2(R)-isobutyl-3(RS)-methylsuccinyl]-4'-[triethylbis(phosphono)methyliminol]-L-phenylalanine N-methylamide · 1 sodium salt] | neither die nor reduce their body weight
CC(=O)O.CNC(=O)[C@H](CCCCN)NC(=O)[C@H](CC(C)C)C(C)C(=O)NO (mixture of isomers) [Compound No. 38, N^a-[4-(Hydroxyamino)-2(R)-isobutyl-3(RS)-methylsuccinyl]-L-lysine N-methylamide · 1 acetate] | neither die nor reduce their body weight
CC(=N)NCCCC[C@H](NC(=O)[C@H](CC(C)C)C(C)C(=O)NO)C(=O)NC(C)CO.CC(=O)O (mixture of isomers) [Compound No. 39, N^a-[4-(Hydroxyamino)-2(R)-isobutyl-3(RS)-methylsuccinyl]-N^e-acetimidoyl-L-lysine N-[2-hydroxy-1(RS)-methylethyl]amide · 1 acetate] | neither die nor reduce their body weight
CC(=N)NCCCC[C@H](NC(=O)[C@H](CC(C)C)C(C)C(=O)NO)C(=O)NN1CCCCC1.CC(=O)O (mixture of isomers) [Compound No. 40, N^a-[4-(Hydroxyamino)-2(R)-isobutyl-3(RS)-methylsuccinyl]-N^e-acetimidoyl-L-lysine N-(piperidin-1-yl)amide · 1 acetate] | neither die nor reduce their body weight
CC(=O)O.CCC(=N)NCCCC[C@H](NC(=O)[C@H](CC(C)C)C(C)C(=O)NO)C(=O)NC (mixture of isomers) [Compound No. 45, N^a-[4-(Hydroxyamino)-2(R)-isobutyl-3(RS)-methylsuccinyl]-N^e-propionimidoyl-L-lysine N-methylamide · 1 acetate] | neither die nor reduce their body weight
CNC(=O)[C@H](CCCNC(=N)N)NC(=O)[C@H](CC(C)C)C(CC(C)C)C(=O)NO (single isomer, unassigned) [Compound No. 24, N^a-[4-(Hydroxyamino)-2(R),3(R or S)-diisobutylsuccinyl]-L-arginine N-methylamide · 1 acetate] | neither die nor reduce their body weight
CNC(=O)[C@H](Cc1ccc(NC(P(=O)(OC)OC)P(=O)(OC)OC)cc1)NC(=O)[C@H](CC(C)C)C(C)C(=O)NO (single isomer, unassigned) [Compound No. 31, N^a-[4-(Hydroxyamino)-2(R)-isobutyl-3(R or S)-methylsuccinyl]-4'-[tetramethylbis(phosphono)methyliminol-L-phenylalanine N-methylamide] | neither die nor reduce their body weight
CNC(=O)[C@H](Cc1ccc(NC(P(=O)(O)OC)P(=O)(OC)OC)cc1)NC(=O)[C@H](CC(C)C)C(C)C(=O)NO (single isomer, unassigned) [Compound No. 32, N^a-[4-(Hydroxyamino)-2(R)-isobutyl-3(R or S)-methylsuccinyl]-4'-[trimethylbis(phosphono)methylimino]-L-phenylalanine N-methylamide · 1 sodium salt] | neither die nor reduce their body weight
CNC(=O)C(CCCCNC(C)=N)NC(=O)C(CC(C)C)C(C)C(=O)NO [Compound No. 22, N^a-[4-(Hydroxyamino)-2(R)-isobutyl-3(RS)-methylsuccinyl]-N^e-acetimidoyl-L-lysine N-methylamide · 1 acetate] | neither die nor reduce their body weight
CNC(=O)C(Cc1ccc(CN)cc1)NC(=O)C(CC(C)C)C(C)C(=O)NO [Compound No. 23, N^a-[4-(Hydroxyamino)-2(R)-isobutyl-3(RS)-methylsuccinyl]-4'-aminomethyl-L-phenylalanine N-methylamide · 1 acetate] | neither die nor reduce their body weight
CNC(=O)C(CCNC(=N)N)NC(=O)C(CC(C)C)C(CCCc1ccccc1)C(=O)NO [Compound No. 26, N^4-[3-Guanidino-1(S)-methylcarbamoylpropyl]-N^1-hydroxy-3(R)-isobutyl-2-(RS)-(3-phenylpropyl)succinamide · 1 acetate] | neither die nor reduce their body weight
CNC(=O)C(CCCCNC(C)=N)NC(=O)C(CC(C)C)C(CCCc1ccccc1)C(=O)NO [Compound No. 30, N^a-[4-(Hydroxyamino)-2(R)-isobutyl-3(RS)-(3-phenylpropyl)-succinyl]-N^e-acetimidoyl-L-lysine N-methylamide · 1 acetate] | neither die nor reduce their body weight
CCOP(=O)(OCC)C(Nc1ccc(CC(NC(=O)C(CC(C)C)C(C)C(=O)NO)C(=O)NC)cc1)P(=O)(OCC)OCC [Compound No. 33, N^a-[4-(Hydroxyamino)-2(R)-isobutyl-3(RS)-methylsuccinyl]-4'-[tetraethylbis(phosphono)methylimino]-L-phenylalanine N-methylamide] | neither die nor reduce their body weight
CC(=O)O.CNC(=O)[C@H](Cc1ccc(CNC(C)=N)cc1)NC(=O)[C@H](CC(C)C)[C@H](O)C(=O)NO [Compound No. 43, N^a-[4-(Hydroxyamino)-2(R)-isobutyl-3(S)-hydroxysuccinyl]-4'-acetimidoyliminomethyl-L-phenylalanine N-methylamide · 1 acetate] | neither die nor reduce their body weight
CC(=N)NCCCCC(NC(=O)C(CC(C)C)C(CCCc1ccccc1)C(=O)NO)C(=O)NCCN(C)C [Compound No. 44, N^a-[4-(Hydroxyamino)-2(R)-isobutyl-3(RS)-(3-phenylpropyl)-succinyl]-N^e-acetimidoyl-L-lysine N-(2-N',N'-dimethylaminoethyl)amide · 2 acetate] | neither die nor reduce their body weight
